The experiment in a line: IkB Signaling. As to conditions: ABC-DLBCL IkBa-CBG/CBR dual luciferase ratio (green luciferase fused to IkBa over red control in OCI-Ly3 lymphoma cells), 4 h. The gist of the method:
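In this assay, an IκBα–CBG68 fusion accumulates when IKK-driven degradation is blocked; native CBR normalizes for cell number. OCI-Ly3 cells were treated 4 h with compound and doxycycline, then green and red light read after Chroma-Glo addition.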

Where [1] appears, read: measured here: control luc red channel unless noted.
The mark [2] stands for this setting: measured here: IkB-luc green channel.
[3] abbreviates: measured here: control luc red channel.

A word on the AC50: it is the concentration at which the activity in the assay is half-maximal.

Some of the results follow. Further columns of the screen follow, without active or inactive calls. The list favours compounds with an active or inconclusive main result. Words in brackets tell the shape of the fitted curve; partial curves, single points and poor fits give uncertain potencies.

With `COCCNS(=O)(=O)c1cc(-c2nn3c(C)nnc3c3ccccc23)ccc1C`, the AC50 under setting [1] was 15.8 µM [rising, partial curve] [measured here: IkB-luc green channel].

In the case of `Cc1ccc(C(=O)c2sc(Nc3ccc(F)cc3)c(C#N)c2N)cc1`, the AC50 under setting [1] was 3.16 µM [rising, full curve]. As for `COc1cccc(NC(=O)CN2C=NS(=O)(=O)c3ccccc32)c1`, under setting [1], the AC50 was 1 µM [falling, full curve, poor fit]. The same measure, in the same setting: then `Cc1cccc(CCn2c(=O)c3ccccc3n(Cc3ccccc3C)c2=O)c1`, with 10 µM [falling, partial curve]. For the molecule `CCN(CC)S(=O)(=O)c1cccc(-c2nnc(SCC(=O)c3ccc(Cl)s3)n2C)c1`, under setting [1], the concentration at half-maximal activity (AC50) was 25.1 µM [falling, partial curve]. Consider `O=C(CCCCn1c(=O)[nH]c2ccccc2c1=O)NCCc1c[nH]c2ccccc12`, for which, under setting [1], the AC50 was 15.8 µM [falling, partial curve]. On the same count and under the same terms, then `Cc1ccc(OC(=O)CSc2nnc(-c3ccc4c(c3)OCO4)o2)c(C)c1`, with 7.94 µM [falling, partial curve]. Take `COC(=O)c1cccc(NC(=O)CSc2nnc(COc3ccc(C#N)cc3)n2-c2ccccc2)c1`: the AC50 runs as follows: under setting [2], 5.01 µM [falling, partial curve]; under setting [3], 10 µM [falling, partial curve].

Consider `COc1ccc2c(c1)c1c(c(=O)n(-c3ccc(F)c(Cl)c3)c(=O)n1Cc1ccccc1F)n2C`, for which the AC50 under setting [1] is 0.251 µM [rising, partial curve]. Same read-out and setting: the figure for `COc1ccccc1NC(=O)C(=O)c1cc(C)n(-c2cc(C)cc(C)c2)c1C` is 25.1 µM [falling, partial curve]; for `O=C1CN(C(=O)c2cccc(Br)c2)C(c2ccccc2)c2cc(Cl)ccc2N1` (stereo not given) it is 2 µM [rising, single point].

As to `CCOc1cccc(-c2nc3ccccc3c(=O)o2)c1`, the half-maximal activity concentration (AC50) was 6.31 µM [rising, single point] under setting [2] and 12.6 µM [falling, partial curve] under setting [3]. For `COc1cccc(C(=O)Nc2nc(-c3nnn(-c4cc(C)ccc4C)c3C)ns2)c1`, the AC50 under setting [1] was 15.8 µM [falling, partial curve].

Turning to `CC(C)CN(c1ccccc1)S(=O)(=O)c1nnc(NC(=O)C2CCCCC2)s1`, the concentration at half-maximal activity (AC50) under setting [1] is 1.58 µM [rising, partial curve]. Still for that read-out and setting: then `Cc1ccc(-c2nc(CS(=O)(=O)CC(=O)NC(C)CCc3ccccc3)c(C)o2)cc1` (stereo not given), with 15.8 µM [falling, partial curve]; and `Cc1c(NC(=O)Nc2cccc(C(F)(F)F)c2)sc2nc3n(c(=O)c12)CCC(C)CC3` (stereo not given), with 31.6 µM [falling, partial curve]. On the same count and under the same terms, then `O=C(CCS(=O)(=O)c1ccccc1)N(Cc1cccnc1)c1nc2c(F)cccc2s1`, with 39.8 µM [falling, single point]; and `CCc1ccccc1NC(=O)Cn1nnc(C(=O)NCc2ccco2)c1N`, with 2 µM [rising, full curve]; and `COC(=O)c1c(C)n(-c2ccc(OC)cc2)c2ccc(O)cc12`, with 10 µM [falling, partial curve].

As to `O=C(O)CCc1ccc(-c2ccc(Br)cc2)n1-c1ccccc1O`, the AC50 under setting [1] is 15.8 µM [falling, partial curve]. On the same count and under the same terms, then `CCOC(=O)C1CCN(c2cc3c(cc2NC(=O)c2ccccc2Cl)n(C)c(=O)n3C)CC1`, with 15.8 µM [falling, partial curve]; and `CCCCN(CC)CCNC(=O)Cn1cnc2sc(C)c(S(=O)(=O)N3CCN(c4ccccc4OC)CC3)c2c1=O`, with 12.6 µM [falling, partial curve]. `CCOc1ccc(N2CC(c3nc4ccccc4n3CCOc3ccc(OC)cc3)CC2=O)cc1` (stereo not given): the concentration at half-maximal activity (AC50) under setting [1] was 39.8 µM [falling, single point]. The same measure, in the same setting: then `CC(C)Cc1nn2cc(-c3cccc(Br)c3)nc2s1`, with 0.0501 µM [falling, full curve].

On to `CCOc1ccc2nc(N3CCCC(C(=O)NCCc4ccc(OC)cc4OC)C3)sc2c1` (stereo not given), for which the AC50 under setting [1] was 31.6 µM [falling, single point].

Consider `O=C(Nc1ccc(F)c(Cl)c1)c1cc(S(=O)(=O)NCc2ccc3c(c2)OCO3)ccc1F`, for which, under setting [1], the AC50 is 20 µM [falling, partial curve]. Still for that read-out and setting: the figure for `Cc1ccc(CNCc2c(C(=O)O)c(C)n(Cc3ccc(C)cc3)c2C)cc1` is 15.8 µM [falling, partial curve]; for `CCn1c(=O)cc(OCC(=O)Nc2cc(OC)c(OC)c(OC)c2)c2ccccc21` it is 31.6 µM [falling, partial curve].

As for `CCc1ccc(S(=O)(=O)c2c(C(=O)c3ccc(C)c(C)c3)cnc3ccccc23)cc1`, the concentration at half-maximal activity (AC50) under setting [1] was 6.31 µM [falling, partial curve]. On the same count and under the same terms, the figure for `CCOc1ccc(CNC(=O)c2ccc3nc(CC)c(CC)nc3c2)cc1OC` is 39.8 µM [falling, partial curve]; for `COc1cccc(N2CCN(c3ccc4nnc(CCC(=O)O)n4n3)CC2)c1` it is 20 µM [falling, partial curve]; for `COc1ccc(CCNC(=O)CCCCCn2c(SCC(N)=O)nc3cc4c(cc3c2=O)OCO4)cc1OC` it is 0.126 µM [falling, full curve]. The same measure, in the same setting: then `CCN(CC)S(=O)(=O)c1ccc2c(c1)N(CC(=O)Nc1ccc(F)cc1)C(=O)CO2`, with 15.8 µM [falling, partial curve]. As for `CCOC(=O)Cc1csc(NC(=O)c2ccc(S(=O)(=O)N3CCCCC3)cc2)n1`, under setting [1], the AC50 is 15.8 µM [falling, partial curve]. Still for that read-out and setting: then `Nc1c(-c2nc(-c3ccc(Cl)cc3)no2)nnn1-c1ccc(C(F)(F)F)c(Cl)c1`, with 0.0398 µM [rising, full curve].

For `COc1cc(NC(=O)c2cc(C3CC3)nc3c2c(C)nn3-c2ccc(C)cc2)cc(OC)c1`, the AC50 under setting [1] was 3.16 µM [falling, partial curve]. Same read-out and setting: the figure for `CC(C)(C)C1CCC2(CC1)C(C#N)=C(SCC(=O)NC1CCCCC1)NC(=O)C2C#N` (stereo not given) is 7.94 µM [falling, partial curve]; for `N#Cc1c(-c2ccco2)nc(SCC(=O)Nc2cccc(Cl)c2)[nH]c1=O` it is 2.51 µM [falling, full curve, poor fit].

(Values after PubChem BioAssay AID445 (National Center for Advancing Translational Sciences (NCATS), 2006).)
